Reference: patent publication US8598339B2, “Withanolide isolated from Physalis longifolia and analogs and methods of use thereof” (University of Kansas, priority 2011, dated 2013)
Some results were stated once for a whole list of compounds, not compound by compound.

Experiments:
Format in all cases: cell-based
Settings in all cases: at the 2.0 and 10.0 μM amounts; 48 hours
HS766T = assay: Pancreatic cancer cell viability, HS766T
Protocol: (§1) The activity of the withanolides of this invention were tested in pancreatic cancer cells. […] Moreover, IC50 values were determined for these compounds (Table 14).

Panc1 = assay: Pancreatic cancer cell viability, Panc1
Mia PaCa-2 = assay: Pancreatic cancer cell viability, Mia PaCa-2
Protocol: as §1

Measured: reduction of cell viability

CC1=C(CO)C(=O)O[C@@H]([C@@H](C)C2CC[C@H]3[C@@H]4C[C@H]5O[C@]56[C@@H](O)C=CC(=O)[C@]6(CO)[C@H]4CC[C@]23C)C1 (stereo partly drawn) [Compound X001]
at least 50%: all assays above

CC(=O)OCC1=C(C)C[C@H]([C@@H](C)C2CC[C@H]3[C@@H]4C[C@H]5O[C@]56[C@@H](OC(C)=O)C=CC(=O)[C@]6(CO)[C@H]4CC[C@]23C)OC1=O (stereo partly drawn) [Compound X002, 4,27-diactyl X001]
at least 50%: all assays above
